Data published in publication PMC3563580.

By UniProt entry, the sequences of proteins in these tests, tags left out. Where a name states a change or a piece, a line headed by the entry shows the natural chain unless it says otherwise.
UniProt Q9HCU9: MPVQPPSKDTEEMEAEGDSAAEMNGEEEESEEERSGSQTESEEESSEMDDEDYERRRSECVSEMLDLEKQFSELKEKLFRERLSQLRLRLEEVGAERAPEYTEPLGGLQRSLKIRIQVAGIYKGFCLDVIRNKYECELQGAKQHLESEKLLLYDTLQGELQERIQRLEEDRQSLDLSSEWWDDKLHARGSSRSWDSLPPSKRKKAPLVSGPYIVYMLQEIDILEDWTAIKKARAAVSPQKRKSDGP

Tests used:
[1] = target: T1, SIN3A, endogenous (human (endogenous in MDA-MB-231, MCF10A and MCF10CAa.1)) (UniProt Q96ST3); assay: co-IP; SIN3A immunoprecipitated with a polyclonal SIN3A antibody from cytoplasmic fractions (NE-PER kit) of MDA-MB-231 cells and derivatives; blot probed for BRMS1 (3a1.21)
T1 sequence: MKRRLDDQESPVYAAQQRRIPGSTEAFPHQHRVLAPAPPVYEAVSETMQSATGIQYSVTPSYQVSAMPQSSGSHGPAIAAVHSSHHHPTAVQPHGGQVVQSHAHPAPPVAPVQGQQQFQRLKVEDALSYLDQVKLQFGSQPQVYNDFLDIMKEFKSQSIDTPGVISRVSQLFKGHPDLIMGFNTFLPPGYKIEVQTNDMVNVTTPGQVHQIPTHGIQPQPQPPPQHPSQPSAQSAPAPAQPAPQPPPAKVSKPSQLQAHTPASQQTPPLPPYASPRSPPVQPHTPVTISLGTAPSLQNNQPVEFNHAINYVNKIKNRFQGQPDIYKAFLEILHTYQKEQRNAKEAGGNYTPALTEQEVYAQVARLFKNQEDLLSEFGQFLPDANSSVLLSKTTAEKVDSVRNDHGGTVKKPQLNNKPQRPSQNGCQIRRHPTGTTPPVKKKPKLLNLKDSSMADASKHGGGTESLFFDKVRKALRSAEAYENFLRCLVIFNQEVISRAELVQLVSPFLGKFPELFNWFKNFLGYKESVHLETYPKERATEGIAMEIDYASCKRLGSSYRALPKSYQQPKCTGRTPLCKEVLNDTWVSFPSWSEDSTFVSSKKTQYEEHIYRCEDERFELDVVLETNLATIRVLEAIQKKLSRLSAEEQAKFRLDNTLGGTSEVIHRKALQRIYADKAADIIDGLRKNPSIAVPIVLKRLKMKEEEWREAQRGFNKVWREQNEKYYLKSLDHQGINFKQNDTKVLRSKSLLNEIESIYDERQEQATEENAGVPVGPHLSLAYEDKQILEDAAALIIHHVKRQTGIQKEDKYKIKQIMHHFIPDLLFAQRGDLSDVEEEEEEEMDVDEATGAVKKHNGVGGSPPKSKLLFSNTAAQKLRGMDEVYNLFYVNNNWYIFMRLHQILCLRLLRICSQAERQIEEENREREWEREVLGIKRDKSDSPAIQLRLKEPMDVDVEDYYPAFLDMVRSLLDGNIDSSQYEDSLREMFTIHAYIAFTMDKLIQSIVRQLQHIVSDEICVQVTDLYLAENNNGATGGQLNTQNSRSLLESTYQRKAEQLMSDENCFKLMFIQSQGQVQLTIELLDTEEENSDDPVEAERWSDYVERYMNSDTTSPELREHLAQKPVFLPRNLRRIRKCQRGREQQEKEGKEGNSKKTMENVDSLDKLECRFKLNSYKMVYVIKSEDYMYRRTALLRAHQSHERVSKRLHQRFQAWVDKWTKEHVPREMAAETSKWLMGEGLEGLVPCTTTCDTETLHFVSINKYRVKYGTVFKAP

[2] = target: T1, SIN3A, endogenous (human (endogenous in MDA-MB-231, MCF10A and MCF10CAa.1)); assay: co-IP; SIN3A immunoprecipitated with a polyclonal SIN3A antibody from nuclear fractions (NE-PER kit) of MDA-MB-231 cells and derivatives; blot probed for BRMS1 (3a1.21)

| binding [2] | Substance | binding [1] |
| --- | --- | --- |
| binds | BRMS1 mutant NLS1,1 (replacement of NLS2 with NLS1) (from UniProt Q9HCU9) | no binding (only in cytoplasmic fractions) |
| binds | BRMS1 mutant NLS2,2 (replacement of NLS1 with NLS2) (from UniProt Q9HCU9) | binds |

Results are given in words; binding and its absence hold for the method and conditions named. In cells and extracts the contact can be indirect. Binding calls can cover weak binding; strength is not graded here.
